Reference: US20100003244A1 (TRIGEN, published 2010)
These are yes or no findings as the source states them, for the method shown. Ends that are not written are not given here.

Assays:
Experiment in all cases: PepSpot array
[1] = target: T1, GPVI peptide 15 (human)
T1 sequence (peptide, N-terminus acetylated): SLQALPSSLVPLE

[2] = target: T2, GPVI peptide 65 (human)
T2 sequence (peptide, N-terminus acetylated): DVTLQCQTRYGFD

[3] = target: T3, GPVI peptide 4 (human)
T3 sequence (peptide, N-terminus acetylated): ALFCLGLCLGRVP

[4] = target: T4, GPVI peptide 121 (human)
T4 sequence (peptide, N-terminus acetylated): TETSRSITTSPKE

[5] = target: T5, GPVI peptide 3 (human)
T5 sequence (peptide, N-terminus acetylated): PTALFCLGLCLGR

[6] = target: T6, GPVI peptide 47 (human)
T6 sequence (peptide, N-terminus acetylated): GSLWSLPSDQLEL

[7] = target: T7, GPVI peptide 66 (human)
T7 sequence (peptide, N-terminus acetylated): TLQCQTRYGFDQF

[8] = target: T8, GPVI peptide 97 (human)
T8 sequence (peptide, N-terminus acetylated): APSDPLELVVTGT

[9] = target: T9, GPVI peptide 49 (human)
T9 sequence (peptide, N-terminus acetylated): SLPSDQLELVATG

[10] = target: T10, GPVI peptide 36 (human)
T10 sequence (peptide, N-terminus acetylated): AVLFIPAMKRSLA

[11] = target: T11, GPVI peptide 96 (human)
T11 sequence (peptide, N-terminus acetylated): WSAPSDPLELVVT

[12] = target: T12, GPVI peptide 93 (human)
T12 sequence (peptide, N-terminus acetylated): SRDPYLWSAPSDP

[13] = target: T13, GPVI peptide 20 (human)
T13 sequence (peptide, N-terminus acetylated): PLEKPVTLRCQGP

[14] = target: T14, GPVI peptide 29 (human)
T14 sequence (peptide, N-terminus acetylated): YRLEKLSSSRYQD

[15] = target: T15, GPVI peptide 57 (human)
T15 sequence (peptide, N-terminus acetylated): KPSLSAQPGPAVS

[16] = target: T16, GPVI peptide 51 (human)
T16 sequence (peptide, N-terminus acetylated): DQLELVATGVFAK

[17] = target: T17, GPVI peptide 110 (human)
T17 sequence (peptide, N-terminus acetylated): SVAEFSEATAELT

[18] = target: T18, GPVI peptide 31 (human)
T18 sequence (peptide, N-terminus acetylated): KLSSSRYQDQAVL

[19] = target: T19, GPVI peptide 48 (human)
T19 sequence (peptide, N-terminus acetylated): LWSLPSDQLELVA

[20] = target: T20, GPVI peptide 72 (human)
T20 sequence (peptide, N-terminus acetylated): FALYKEGDPAPYK

[21] = target: T21, GPVI peptide 21 (human)
T21 sequence (peptide, N-terminus acetylated): EKPVTLRCQGPPG

[22] = target: T22, GPVI peptide 67 (human)
T22 sequence (peptide, N-terminus acetylated): QCQTRYGFDQFAL

[23] = target: T23, GPVI peptide 39 (human)
T23 sequence (peptide, N-terminus acetylated): AMKRSLAGRYRCS

[24] = target: T24, GPVI peptide 128 (human)
T24 sequence (peptide, N-terminus acetylated): DSPAGPARQYYTK

[25] = target: T25, GPVI peptide 90 (human)
T25 sequence (peptide, N-terminus acetylated): RCYSFSSRDPYLW

[26] = target: T26, GPVI peptide 43 (human)
T26 sequence (peptide, N-terminus acetylated): RYRCSYQNGSLWS

[27] = target: T27, GPVI peptide 89 (human)
T27 sequence (peptide, N-terminus acetylated): TYRCYSFSSRDPY

[28] = target: T28, GPVI peptide 40 (human)
T28 sequence (peptide, N-terminus acetylated): KRSLAGRYRCSYQ

[29] = target: T29, GPVI peptide 62 (human)
T29 sequence (peptide, N-terminus acetylated): AVSSGGDVTLQCQ

[30] = target: T30, GPVI peptide 23 (human)
T30 sequence (peptide, N-terminus acetylated): TLRCQGPPGVDLY

[31] = target: T31, GPVI peptide 100 (human)
T31 sequence (peptide, N-terminus acetylated): ELVVTGTSVTPSR

[32] = target: T32, GPVI peptide 41 (human)
T32 sequence (peptide, N-terminus acetylated): SLAGRYRCSYQNG

[33] = target: T33, GPVI peptide 85 (human)
T33 sequence (peptide, N-terminus acetylated): TVTAAHSGTYRCY

[34] = target: T34, GPVI peptide 73 (human)
T34 sequence (peptide, N-terminus acetylated): LYKEGDPAPYKNP

[35] = target: T35, GPVI peptide 42 (human)
T35 sequence (peptide, N-terminus acetylated): AGRYRCSYQNGSL

[36] = target: T36, GPVI peptide 34 (human)
T36 sequence (peptide, N-terminus acetylated): YQDQAVLFIPAMK

[37] = target: T37, GPVI peptide 78 (human)
T37 sequence (peptide, N-terminus acetylated): KNPERWYRASFPI

[38] = target: T38, GPVI peptide 28 (human)
T38 sequence (peptide, N-terminus acetylated): DLYRLEKLSSSRY

[39] = target: T39, GPVI peptide 91 (human)
T39 sequence (peptide, N-terminus acetylated): YSFSSRDPYLWSA

[40] = target: T40, GPVI peptide 126 (human)
T40 sequence (peptide, N-terminus acetylated): PKESDSPAGPARQ

[41] = target: T41, GPVI peptide 106 (human)
T41 sequence (peptide, N-terminus acetylated): RLPTEPPSSVAEF

[42] = target: T42, GPVI peptide 112 (human)
T42 sequence (peptide, N-terminus acetylated): FSEATAELTVSFT

[43] = target: T43, GPVI peptide 124 (human)
T43 sequence (peptide, N-terminus acetylated): ITTSPKESDSPAG

[44] = target: T44, GPVI peptide 83 (human)
T44 sequence (peptide, N-terminus acetylated): FPIITVTAAHSGT

[45] = target: T45, GPVI peptide 103 (human)
T45 sequence (peptide, N-terminus acetylated): TSVTPSRLPTEPP

[46] = target: T46, GPVI peptide 81 (human)
T46 sequence (peptide, N-terminus acetylated): YRASFPIITVTAA

[47] = target: T47, GPVI peptide 123 (human)
T47 sequence (peptide, N-terminus acetylated): RSITTSPKESDSP

[48] = target: T48, GPVI peptide 2 (human)
T48 sequence (peptide, N-terminus acetylated): PSPTALFCLGLCL

[49] = target: T49, GPVI peptide 1 (human)
T49 sequence (peptide, N-terminus acetylated): MSPSPTALFCLGL

[50] = target: T50, GPVI peptide 125 (human)
T50 sequence (peptide, N-terminus acetylated): TSPKESDSPAGPA

[51] = target: T51, GPVI peptide 70 (human)
T51 sequence (peptide, N-terminus acetylated): GFDQFALYKEGDP

[52] = target: T52, GPVI peptide 120 (human)
T52 sequence (peptide, N-terminus acetylated): FTTETSRSITTSP

[53] = target: T53, GPVI peptide 45 (human)
T53 sequence (peptide, N-terminus acetylated): SYQNGSLWSLPSD

[54] = target: T54, GPVI peptide 76 (human)
T54 sequence (peptide, N-terminus acetylated): PAPYKNPERWYRA

Measured: binding

B1: monoclonal antibody hGP 5C4 (antibody, V domains shown)
VH: EVKLQESGGGLVQPGRSLKLSCTASGFTFSDYFMSWVRQAPTRGLEWVASISSGGASAYWRDSVKGRFTISRDNAKSALYLQMDSLRSEDTATYFCARGELDFDYWGQGVMVAVSS
VL: ADPNSTLLSASVGDRVTLNCTASQNVYKNLAWYQQKLGEAPRLLLYSANSQTGIPSRFSGSGSGPDFTLTISSLQPEDVASYFCQQYYSGNTFGAGTKLELKR
notes: Monoclonal IgG from Lou/C rats immunized with Fc-GPVI-nt; also called ab 5C4; anti-GPVI mAb 5C4
no binding (tested: 500 LU): all assays above
